Data from publication PMC5744976.

By UniProt entry, the sequences of proteins in these tests, tags left out. Where a name states a change or a piece, a line headed by the entry shows the natural chain unless it says otherwise.
UniProt P08985: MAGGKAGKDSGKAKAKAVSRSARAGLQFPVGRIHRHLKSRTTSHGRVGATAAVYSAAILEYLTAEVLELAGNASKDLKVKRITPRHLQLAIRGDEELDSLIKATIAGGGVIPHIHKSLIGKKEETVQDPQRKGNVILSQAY
UniProt P21187: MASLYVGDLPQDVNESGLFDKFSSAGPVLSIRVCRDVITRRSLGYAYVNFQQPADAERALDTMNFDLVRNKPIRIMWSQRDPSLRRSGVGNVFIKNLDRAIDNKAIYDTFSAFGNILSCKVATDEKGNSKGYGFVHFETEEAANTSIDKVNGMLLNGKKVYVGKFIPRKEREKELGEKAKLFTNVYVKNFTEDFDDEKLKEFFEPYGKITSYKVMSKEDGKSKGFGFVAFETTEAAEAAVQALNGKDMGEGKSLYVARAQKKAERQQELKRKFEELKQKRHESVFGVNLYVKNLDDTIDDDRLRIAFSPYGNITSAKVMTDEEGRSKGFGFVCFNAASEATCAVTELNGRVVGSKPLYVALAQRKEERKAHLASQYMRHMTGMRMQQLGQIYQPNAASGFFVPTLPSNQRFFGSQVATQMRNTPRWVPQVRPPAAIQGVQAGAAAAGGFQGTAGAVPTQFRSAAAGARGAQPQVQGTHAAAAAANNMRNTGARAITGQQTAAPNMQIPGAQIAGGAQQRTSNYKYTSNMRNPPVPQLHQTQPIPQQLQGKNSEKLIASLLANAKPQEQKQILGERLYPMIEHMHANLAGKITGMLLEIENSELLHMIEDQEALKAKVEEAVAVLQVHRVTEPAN
UniProt Q26365: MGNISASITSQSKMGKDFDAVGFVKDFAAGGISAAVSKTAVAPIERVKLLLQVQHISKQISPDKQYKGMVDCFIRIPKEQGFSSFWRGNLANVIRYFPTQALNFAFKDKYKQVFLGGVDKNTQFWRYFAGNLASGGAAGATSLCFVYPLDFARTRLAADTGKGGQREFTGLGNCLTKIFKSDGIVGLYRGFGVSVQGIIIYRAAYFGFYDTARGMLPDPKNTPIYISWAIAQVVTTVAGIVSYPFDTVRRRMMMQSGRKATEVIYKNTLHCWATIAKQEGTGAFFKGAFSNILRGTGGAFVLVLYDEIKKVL

T1: Chromatin-Linked Adapter for MSL Proteins (CLAMP) (D. melanogaster (endogenous in S2 and Kc cells)) (UniProt Q9V9N4)
T1 sequence: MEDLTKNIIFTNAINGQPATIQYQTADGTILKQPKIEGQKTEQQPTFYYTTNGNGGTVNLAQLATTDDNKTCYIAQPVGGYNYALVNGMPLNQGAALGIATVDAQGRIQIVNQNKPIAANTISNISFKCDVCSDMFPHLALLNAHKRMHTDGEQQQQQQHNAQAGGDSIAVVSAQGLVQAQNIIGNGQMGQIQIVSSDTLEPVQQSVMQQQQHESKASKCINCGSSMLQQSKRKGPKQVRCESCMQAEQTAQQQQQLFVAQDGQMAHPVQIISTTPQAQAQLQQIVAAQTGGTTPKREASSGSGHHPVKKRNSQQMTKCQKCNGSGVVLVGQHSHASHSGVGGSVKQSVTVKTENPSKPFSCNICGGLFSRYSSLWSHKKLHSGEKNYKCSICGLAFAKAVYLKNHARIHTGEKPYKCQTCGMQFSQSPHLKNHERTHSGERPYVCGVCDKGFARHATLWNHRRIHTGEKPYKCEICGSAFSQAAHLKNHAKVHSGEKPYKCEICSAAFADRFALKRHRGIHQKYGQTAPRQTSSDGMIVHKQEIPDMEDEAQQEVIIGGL


Legend:
[1] = target: T1, Chromatin-Linked Adapter for MSL Proteins (CLAMP) (D. melanogaster (endogenous in S2 and Kc cells)); experiment: affinity purification with mass spectrometry; ChIP-MS: nuclei of S2 cells cross-linked with 1% formaldehyde, sonicated solubilized chromatin, anti-CLAMP antibody overnight at 4°C, Protein A agarose beads; IgG control; peptides detected in one of two S2 replicates
[2] = target: T1, Chromatin-Linked Adapter for MSL Proteins (CLAMP) (D. melanogaster (endogenous in S2 and Kc cells)); experiment: affinity purification with mass spectrometry; non-crosslinked; anti-CLAMP antibody coupled to magnetic Dynabeads, nuclear extract of S2 (male) and Kc (female) cells, 1 hour at 4°C, washes with 50mM Tris, 500mM NaCl, 0.1% NP-40; IgG control; two biological replicates per cell type

Molecule | binding [1] | binding [2]
Histone H2A.v (from UniProt P08985 1-141) | binds | binds
Polyadenylate-binding protein (from UniProt P21187 1-634) | binds | binds
Negative Elongation Factor A (protein, UniProt Q86NP2 1-1251) MANVRDSDTSLWLHNKLGTSNDSWINGSICSQLNKEVLRNIKECFPDLQTQVKLKLLLSFLHIPRRLVEEWKAELEEVIEVAGLDSELWVSMLAETMKTFPATSSLNTEISDYEDTRPIFIDMVNDLRKLVTKHSDLGMLPLECQYLNKNALISVVGQQPAPVKHFTLKRKPKSAQLRTELLHKSADAQSSLKKASAPTIPLRSRGMPRKMTDTTPLKGIPSRMPTTGFRSATVPGNAAQRPNLSRTPAGRKDGGIKLIEFTEQPLGYAAAKKRKREQQLEEQQKKQEQKQQQAAAAAAAAATAAASNAGDSSPTDAATASGGETPVTPTSANNSFEIKMEPQQLNQSAGSLEEPQDDEMSGKANMECDIETPEYATATLDFAQATSTSVADGQPGKPAVETKLKTPRTPKSAAKLNNNNNNNNNNSFNHTPKRIKQEIEIKSEEIIVPASIKLEKIETSPSTQRVSIQQQPPSLVQRTPHLLIRSSPQKRQNNGATTSAGTTTTTVGNTTIKMEKLDIKPMIRATGVSPSTSAGTTTTLLTPQQLRQAANPLANLPNNISVKITSAKAKAAAAAAATSSGSQTQSQQPQTLQVQQAPQQSHPPLLINSSTPVILASSPSAQRAKALALPSSSTSATTTTTIPSQAIKTMPLSQLKTATNSGPVIISQTIIQPAKRAQQQAGTSSAAAASQQQQQQQSQQQLLHQQIQQQTQQQAQLPQQPQQQQTQYILATPQQQPQQIQQQQQQQQPILPTLTSFSHSRPMPQTTTLYQATTPSGSGQTPTKILLKTSGSSSVVMTPLRQAQPQQATAVVSSNPPPLVATSAAVVSPGQTTLNIQNVQLPNRPVTIQPASQAAQQQHMQAQLQQQQPHPQHTIVANTTATQQPKLSQVLMQPTAAVGTSGVSALNVSPTSGKNKTIILTQKGVILRNIGGDMYQQIPISNVGNMQGLGGTTLMTTTAGPPSLVKTTPSSGVQLQQQQSGKQILPTLIPTSSLGGQHVIVQQQQPTNVIGNSQQQTIIRPVMTNVGGGLTTLPQGLTLIQRPGQQPQLVQVQAAPGSTQRTIITQSNTAAAASQQQPRQQQQQILVQHKPAPTLQQRLVTSTTSGGQGQQGNPNAGLPRTVQVQVQAQQQQQPQQQQATQQQSQQAPQRRGLSLSNEHVHKAHEMFRKANRVSRPDKALILGFMAGLRENPRPNNENVLVIKLGETEEKVQQDNGHTALCLVESHIRLDYNTGEWKTFQNYRLQDQSAAS | binds | binds
Clueless (protein, UniProt A1ZAB5 1-1448) MALETEAKNSNATATGDATATATKASGKAKENNNTAGGKKNLNPNSNQQNSNQNLVNGNGTAADGPAAKKKGKKNRNKSPTEPTTEAVLSNGHAEKPTVVDAVEDNADTNANVEKPQEGGAPDAEADGDDIDLDALQDIGITVNISSPGADLLCVQLSSMELVQEIHQLLMDREETCHRTCFSLQLDNVTLDNFAELKSINNLEQGSTIKVVEEPYTMREARIHVRHVRDLLKNLDPADAYNGIDCTSLTYLNTITQGDLLDKKRTRPDSVDCTPPEYVTPGVSDPPILPLHPNVKNAKGPQALKVLTTSAWNPPPGPRKLHGDLMYLYVVTMEDKRFHISACSKGFFINQSTDDTFNPKPDNPSHLSHSLIDLLSHISPSFRRAFQTIQKRRTMRHAFERVATPYQVYQWAAPILEHTVDAIRAEDAFSSKLGYEEHIPGQTRDWNEELQTTRELPRKTLPERLLRERAIFKVHGDFVTAATRGAMAVIDGNVLAINPGEDTKMQMFIWNNIFFSMGFDVRDHYKELGGDAAAFVAPRYDLHGVRVYNAVDIEGLYTLGTVVVDYRGYRVTAQSIIPGILEREQEQSVVYGSIDFGKTVLSHPKYLELLRQAGKHLKILPHVVLNERDEPVELCSSVECKGIIGNDGRHYILDLLRTFPPDVNFLKLQDVQLSKELVDMGFPIEHRHKLCCLRQELLEAFIEDRHVNFIRIAAARLQQLTTIKQSEKSEANPVPALEGAEAASKVNGAEKPDDKEKKNEEEEKKERSTSGEARAAAIVNAIREAQSNVATSNEVQAAEVVKRACAAVGSLKEKEFDFRFNPDVFSPGIRHADGEEGTSLAKQKVLVQEAAEFLVLKQIPAFIKEHMSHSSSPIDGQSLTESLHSHGINVRYLGKVIKILSQMPRMDYLHRIAVLELIVRATKHIYYTYMQNTEPLHLSAAISHFLNCLLTNGPVNPAVSSEEAHKKRGNGGKHNKHKSSKGGKGQQQQQTTGNQNGSSSGSSNSSSASDWTLMTPRSLWQQIRKEAKVYWDWELDCDSIETAVSKYGILRISLMRAFCLKVGIQVLLREYNFESKHKPTFGDDDIVNVFPIVKHISPRATDAYNFYTTGQAKIQQGLFKEGYELISGALNLLNNVFGALHQENGSCLRMLARLSYLLGDAQDALAIQQRAVIMSERVNGMDHPSTILEYTHLSLYSFANGHVGMSLKLLYRARYLMVLICGEDHPEVALIDSNISLILHALGEYELSLRFIEHALKLNLKYFGDKDMHVALSYHLMARTQSCMGDFRSALNNEKETYSFYKSQLGENHEKTRDSAECLRLLTQQAVLLQRKMNDIYSSGKLTSDLPPIHITPPSMGSVLDMLNTINGILFVKISRKDIVKVRSEIEKHFKTDSTENEVNDAINSIVAAANNNGEAEDAVSKDIKEQPEAGKQLTNGDKAAATEATSS | binds | binds
Alan Shepard (protein, UniProt Q8MSV2 1-590) MHPRYSPAPPPQQQQQMGGPPHQQQGGGGGGGVSMRGPSNAQQLPPQIPRSQNYSNGSSSSAAAAPLTSRSAFPGAPLTASAVALKGALPQRPPAMTSPAAAAAGAALAAGAPYRGAASWTPQGYAPAAAAAAAAVAQQAAYRYTAPLPQPAYAAYTPHTATTPATTTVSFLSQPVDYYWYGQRVPTAASPSNTNSSSSSNTGSQSGTLSTSLSNTTNTNTNMGPNGTVQNQNQQGGEQLSKTNLYIRGLQQGTTDKDLVNMCAQYGTIISTKAILDKTTNKCKGYGFVDFEQPAFAECAVKGLQGKGVQAQMAKQQEQDPTNLYIANLPPHFKETDLEAMLSKYGQVVSTRILRDQQMNSKGVGFARMESREKCEQIIQMFNGNTIPGAKDPLLVKFADGGPKKKNLFKTPDPNARAWRDVSAEGIPVAYDPTMQQNGVSVNVGTPIGVPYSRFSAPQVGGYPVAGSQWIPGYMMTQVDDQTSYSPQYMQMAAAPPLGVTSYKPEAVNQVQPRGISMMVSGDTGVPYGTMMPQLATLQIGNSYISPTYPYYAPPPTIIPTMPMTDSEQASTAASPDEAYTQYPHQAAPK | binds | –
Modulo (protein, UniProt P13469 1-542) MAQKKAVTVKGKKATNGEEKPLAKRVTKSTKVQEEETVVPQSPSKKSRKQPVKEVPQFSEEDESDVEEQNDEQPGDDSDFETEEAAGLIDDEAEEDEEYNSDDEEDDDDDELEPGEVSKSEGADEVDESDDDEEAPVEKPVSKKSEKANSEKSEENRGIPKVKVGKIPLGTPKNQIVFVTNLPNEYLHKDLVALFAKFGRLSALQRFTNLNGNKSVLIAFDTSTGAEAVLQAKPKALTLGDNVLSVSQPRNKEENNERTVVVGLIGPNITKDDLKTFFEKVAPVEAVTISSNRLMPRAFVRLASVDDIPKALKLHSTELFSRFITVRRISQESISRTSELTLVVENVGKHESYSSDALEKIFKKFGDVEEIDVVCSKAVLAFVTFKQSDAATKALAQLDGKTVNKFEWKLHRFERSTSGRAILVTNLTSDATEADLRKVFNDSGEIESIIMLGQKAVVKFKDDEGFCKSFLANESIVNNAPIFIEPNSLLKHRLLKKRLAIGQTRAPRKFQKDTKPNFGKKPFNKRPAQENGGKSFVKRARF | binds | binds

Results, then the molecule that gave them:

binding [1] | binding [2] | Molecule
binds | binds | Stress-sensitive B (from UniProt Q26365 1-312)
binds | binds | Syncrip
– | binds | Squid (protein, UniProt Q08473 1-344) MAENKQVDTEINGEDFTKDVTADGPGSENGDAGAAGSTNGSSDNQSAASGQRDDDRKLFVGGLSWETTEKELRDHFGKYGEIESINVKTDPQTGRSRGFAFIVFTNTEAIDKVSAADEHIINSKKVDPKKAKARHGKIFVGGLTTEISDEEIKTYFGQFGNIVEVEMPFDKQKSQRKGFCFITFDSEQVVTDLLKTPKQKIAGKEVDVKRATPKPENQMMGGMRGGPRGGMRGGRGGYGGRGGYNNQWDGQGSYGGYGGGYGGYGAGGYGDYYAGGYYNGYDYGYDGYGYGGGFEGNGYGGGGGGNMGGGRGGPRGGGGPKGGGGFNGGKQRGGGGRQQRHQPY

No constants are given. Whether binding was seen depends on the method and setting. In cells and extracts the contact can be indirect. These calls come from enrichment with a bait or labelling near it, and not all partners need be listed.
